The other results are listed elsewhere or left out. The calls rarely recur for the same compound in another form.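 In K562 cells expressing nanoluciferase-fused kinases, luminescence was recorded at 4 h intervals between 2 and 18 h, normalized as percent of control with DMSO at 100% and a positive control at 0%. A significant (2 sigma) signal drop marks a time point as decreased. The authors' rule for a hit is not shown and takes in more than the number of time points.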
Key:
Assay in all cases: kinase-Nluc reporter destabilization hit call (1 = scored as downregulated) (binary); higher = compound decreases kinase abundance
Conditions in all cases: K562; 2-18 h
RET = RET (UniProt P07949)
[1] = molecular target: RET_M918T (clone: RET_mut) (UniProt P07949)
RIOK1 = RIOK1 (UniProt Q9BRS2)
RIPK1 = RIPK1 (UniProt Q13546)
RIPK2 = RIPK2 (UniProt O43353)
ROR2 = ROR2 (UniProt Q01974)
RPS6KA1 = RPS6KA1 (UniProt Q15418)
SPHK1 = SPHK1 (UniProt Q9NYA1)
SRC = SRC (UniProt P12931)
STK24 = STK24 (UniProt Q9Y6E0)

Sequences of proteins named here, by UniProt entry; tags and fusion partners are left off. A change or cut given only in a name is not applied to a line headed by its entry.
UniProt P07949, whole entry, looked up: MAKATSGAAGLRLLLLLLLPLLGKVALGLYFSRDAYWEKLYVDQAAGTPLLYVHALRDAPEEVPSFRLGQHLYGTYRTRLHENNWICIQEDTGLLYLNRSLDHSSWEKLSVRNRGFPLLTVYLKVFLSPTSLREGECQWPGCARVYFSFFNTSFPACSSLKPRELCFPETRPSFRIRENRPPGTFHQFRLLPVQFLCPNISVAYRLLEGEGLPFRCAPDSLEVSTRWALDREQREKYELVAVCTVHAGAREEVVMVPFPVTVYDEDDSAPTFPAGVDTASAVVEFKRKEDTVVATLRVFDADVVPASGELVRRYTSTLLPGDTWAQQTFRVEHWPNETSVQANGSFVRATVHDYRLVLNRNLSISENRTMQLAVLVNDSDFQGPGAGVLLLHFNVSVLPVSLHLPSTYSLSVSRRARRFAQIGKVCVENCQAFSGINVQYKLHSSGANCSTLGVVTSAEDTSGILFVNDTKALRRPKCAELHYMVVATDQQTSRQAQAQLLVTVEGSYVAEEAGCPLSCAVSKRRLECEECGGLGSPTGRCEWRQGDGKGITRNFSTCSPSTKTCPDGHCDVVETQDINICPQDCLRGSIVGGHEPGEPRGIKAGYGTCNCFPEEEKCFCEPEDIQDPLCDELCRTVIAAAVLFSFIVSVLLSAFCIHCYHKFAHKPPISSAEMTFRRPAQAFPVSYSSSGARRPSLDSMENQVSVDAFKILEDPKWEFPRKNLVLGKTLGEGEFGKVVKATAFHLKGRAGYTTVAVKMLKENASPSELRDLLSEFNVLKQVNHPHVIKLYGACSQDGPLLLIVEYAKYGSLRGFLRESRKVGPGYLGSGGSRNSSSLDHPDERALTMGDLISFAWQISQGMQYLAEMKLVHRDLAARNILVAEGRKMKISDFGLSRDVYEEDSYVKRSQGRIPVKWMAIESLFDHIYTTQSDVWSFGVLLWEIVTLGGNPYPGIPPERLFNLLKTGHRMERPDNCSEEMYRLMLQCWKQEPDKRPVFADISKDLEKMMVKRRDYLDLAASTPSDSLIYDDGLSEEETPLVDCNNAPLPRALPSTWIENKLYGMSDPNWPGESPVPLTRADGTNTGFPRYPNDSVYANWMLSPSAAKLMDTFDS
UniProt P07949, whole entry M918T, looked up: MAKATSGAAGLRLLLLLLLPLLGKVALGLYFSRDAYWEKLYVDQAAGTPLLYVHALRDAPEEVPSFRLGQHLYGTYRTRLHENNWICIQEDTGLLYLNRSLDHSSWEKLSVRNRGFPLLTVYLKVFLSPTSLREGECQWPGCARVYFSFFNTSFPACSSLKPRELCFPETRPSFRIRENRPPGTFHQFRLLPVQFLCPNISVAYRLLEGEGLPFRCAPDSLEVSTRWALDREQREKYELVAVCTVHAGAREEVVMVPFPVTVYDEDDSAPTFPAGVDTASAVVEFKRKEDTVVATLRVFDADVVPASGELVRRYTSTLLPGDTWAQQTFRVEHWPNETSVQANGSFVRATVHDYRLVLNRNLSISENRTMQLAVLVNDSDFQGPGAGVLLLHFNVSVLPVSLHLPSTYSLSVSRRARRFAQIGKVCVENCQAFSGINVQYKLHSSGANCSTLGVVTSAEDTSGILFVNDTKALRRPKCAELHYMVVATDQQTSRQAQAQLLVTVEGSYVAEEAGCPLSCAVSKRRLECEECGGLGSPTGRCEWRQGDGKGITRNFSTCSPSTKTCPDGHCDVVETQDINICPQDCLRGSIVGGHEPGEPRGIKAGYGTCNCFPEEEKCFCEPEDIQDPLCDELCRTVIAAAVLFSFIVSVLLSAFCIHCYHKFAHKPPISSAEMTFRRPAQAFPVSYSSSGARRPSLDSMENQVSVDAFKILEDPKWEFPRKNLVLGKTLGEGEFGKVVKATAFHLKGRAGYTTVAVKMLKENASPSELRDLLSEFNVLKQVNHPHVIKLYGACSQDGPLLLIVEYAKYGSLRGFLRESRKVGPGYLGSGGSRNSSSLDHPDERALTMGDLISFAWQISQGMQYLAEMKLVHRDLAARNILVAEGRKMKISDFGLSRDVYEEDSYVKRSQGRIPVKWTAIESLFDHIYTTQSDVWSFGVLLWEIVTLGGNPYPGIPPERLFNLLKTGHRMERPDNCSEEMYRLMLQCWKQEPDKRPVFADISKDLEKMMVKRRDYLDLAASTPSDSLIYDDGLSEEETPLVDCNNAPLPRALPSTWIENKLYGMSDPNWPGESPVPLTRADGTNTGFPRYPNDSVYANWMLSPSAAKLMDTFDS
UniProt Q9BRS2: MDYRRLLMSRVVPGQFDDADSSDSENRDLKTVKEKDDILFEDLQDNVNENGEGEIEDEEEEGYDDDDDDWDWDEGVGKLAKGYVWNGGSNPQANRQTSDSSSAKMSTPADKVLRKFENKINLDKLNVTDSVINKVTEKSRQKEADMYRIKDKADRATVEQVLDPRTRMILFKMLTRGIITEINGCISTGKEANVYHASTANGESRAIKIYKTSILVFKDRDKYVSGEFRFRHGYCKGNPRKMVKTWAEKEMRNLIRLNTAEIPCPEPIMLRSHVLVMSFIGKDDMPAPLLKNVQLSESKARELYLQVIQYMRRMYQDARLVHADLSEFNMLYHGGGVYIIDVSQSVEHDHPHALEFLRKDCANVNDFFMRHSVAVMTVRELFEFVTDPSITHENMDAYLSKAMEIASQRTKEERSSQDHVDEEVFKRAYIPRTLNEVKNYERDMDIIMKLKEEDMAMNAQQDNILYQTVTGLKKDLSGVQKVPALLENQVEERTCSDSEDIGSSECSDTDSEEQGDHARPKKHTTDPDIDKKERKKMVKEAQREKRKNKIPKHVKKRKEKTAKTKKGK
UniProt Q13546: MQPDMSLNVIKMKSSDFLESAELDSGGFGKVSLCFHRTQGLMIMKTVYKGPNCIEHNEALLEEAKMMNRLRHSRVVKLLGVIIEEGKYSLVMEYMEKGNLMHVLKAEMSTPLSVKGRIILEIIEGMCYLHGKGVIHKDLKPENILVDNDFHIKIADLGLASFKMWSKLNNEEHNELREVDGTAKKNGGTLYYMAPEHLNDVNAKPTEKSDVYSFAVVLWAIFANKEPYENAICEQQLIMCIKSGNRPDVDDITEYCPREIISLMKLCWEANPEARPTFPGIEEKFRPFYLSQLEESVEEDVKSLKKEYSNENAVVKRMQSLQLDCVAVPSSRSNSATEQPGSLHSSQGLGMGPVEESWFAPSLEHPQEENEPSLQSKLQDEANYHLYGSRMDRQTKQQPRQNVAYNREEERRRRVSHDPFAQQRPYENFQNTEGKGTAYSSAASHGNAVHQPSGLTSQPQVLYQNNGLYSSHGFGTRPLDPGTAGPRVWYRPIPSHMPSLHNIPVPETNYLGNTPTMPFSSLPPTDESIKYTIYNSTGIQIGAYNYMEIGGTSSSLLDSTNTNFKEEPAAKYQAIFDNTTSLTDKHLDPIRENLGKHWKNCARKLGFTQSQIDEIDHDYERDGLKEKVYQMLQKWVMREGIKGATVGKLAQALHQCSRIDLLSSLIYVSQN
UniProt Q01974, whole entry: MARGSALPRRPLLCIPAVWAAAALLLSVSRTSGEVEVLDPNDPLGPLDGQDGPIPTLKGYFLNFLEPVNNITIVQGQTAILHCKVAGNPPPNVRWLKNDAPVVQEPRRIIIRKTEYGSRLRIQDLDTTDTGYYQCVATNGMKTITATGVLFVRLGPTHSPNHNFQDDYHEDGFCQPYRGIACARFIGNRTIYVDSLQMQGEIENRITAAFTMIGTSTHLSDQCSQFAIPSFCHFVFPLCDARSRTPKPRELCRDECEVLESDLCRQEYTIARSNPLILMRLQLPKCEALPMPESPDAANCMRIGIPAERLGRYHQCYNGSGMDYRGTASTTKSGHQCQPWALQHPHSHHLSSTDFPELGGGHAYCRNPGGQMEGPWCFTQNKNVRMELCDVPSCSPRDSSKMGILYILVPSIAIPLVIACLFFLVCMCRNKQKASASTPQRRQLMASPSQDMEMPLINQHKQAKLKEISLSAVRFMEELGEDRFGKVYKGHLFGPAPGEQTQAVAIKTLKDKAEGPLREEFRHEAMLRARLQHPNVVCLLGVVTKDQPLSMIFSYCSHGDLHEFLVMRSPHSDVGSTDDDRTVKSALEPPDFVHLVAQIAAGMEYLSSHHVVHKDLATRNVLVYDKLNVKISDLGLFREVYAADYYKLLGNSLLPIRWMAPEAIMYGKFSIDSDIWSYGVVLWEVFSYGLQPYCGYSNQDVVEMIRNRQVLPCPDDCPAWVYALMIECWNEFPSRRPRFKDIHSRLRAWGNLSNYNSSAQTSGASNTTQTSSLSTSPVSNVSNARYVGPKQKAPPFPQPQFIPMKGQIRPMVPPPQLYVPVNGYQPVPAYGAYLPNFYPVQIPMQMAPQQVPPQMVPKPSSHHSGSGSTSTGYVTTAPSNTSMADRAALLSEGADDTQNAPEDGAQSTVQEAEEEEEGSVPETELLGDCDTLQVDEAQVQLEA
UniProt Q15418, whole entry: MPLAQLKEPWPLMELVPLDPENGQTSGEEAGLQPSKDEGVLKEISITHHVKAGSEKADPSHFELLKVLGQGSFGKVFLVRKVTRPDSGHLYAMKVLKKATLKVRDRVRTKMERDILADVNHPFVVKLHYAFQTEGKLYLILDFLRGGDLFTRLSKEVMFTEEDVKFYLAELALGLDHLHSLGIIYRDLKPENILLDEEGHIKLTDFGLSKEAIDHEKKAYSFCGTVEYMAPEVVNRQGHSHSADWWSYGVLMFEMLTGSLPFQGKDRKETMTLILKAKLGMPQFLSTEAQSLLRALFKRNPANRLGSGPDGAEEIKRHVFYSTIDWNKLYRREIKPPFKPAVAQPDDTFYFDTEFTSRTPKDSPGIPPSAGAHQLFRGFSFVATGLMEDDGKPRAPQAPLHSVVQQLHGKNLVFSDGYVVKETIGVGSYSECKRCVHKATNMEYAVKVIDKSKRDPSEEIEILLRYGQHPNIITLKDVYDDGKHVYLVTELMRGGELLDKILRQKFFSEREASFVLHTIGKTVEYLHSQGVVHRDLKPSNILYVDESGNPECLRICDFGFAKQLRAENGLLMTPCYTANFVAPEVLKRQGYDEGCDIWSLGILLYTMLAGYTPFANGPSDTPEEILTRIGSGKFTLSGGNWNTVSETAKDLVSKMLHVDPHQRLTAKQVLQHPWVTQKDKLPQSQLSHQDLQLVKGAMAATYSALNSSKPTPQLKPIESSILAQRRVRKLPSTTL
UniProt Q9NYA1, whole entry: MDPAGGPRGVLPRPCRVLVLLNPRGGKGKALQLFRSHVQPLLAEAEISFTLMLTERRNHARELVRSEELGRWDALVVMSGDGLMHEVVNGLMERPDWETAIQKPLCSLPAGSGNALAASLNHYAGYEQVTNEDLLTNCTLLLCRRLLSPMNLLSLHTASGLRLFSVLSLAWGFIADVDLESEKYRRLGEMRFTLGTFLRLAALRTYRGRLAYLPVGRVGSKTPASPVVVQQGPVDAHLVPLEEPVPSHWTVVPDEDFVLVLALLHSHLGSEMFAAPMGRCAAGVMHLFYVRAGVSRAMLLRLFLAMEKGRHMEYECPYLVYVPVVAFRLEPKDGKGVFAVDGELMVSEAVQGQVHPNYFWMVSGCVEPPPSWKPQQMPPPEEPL
UniProt Q9Y6E0: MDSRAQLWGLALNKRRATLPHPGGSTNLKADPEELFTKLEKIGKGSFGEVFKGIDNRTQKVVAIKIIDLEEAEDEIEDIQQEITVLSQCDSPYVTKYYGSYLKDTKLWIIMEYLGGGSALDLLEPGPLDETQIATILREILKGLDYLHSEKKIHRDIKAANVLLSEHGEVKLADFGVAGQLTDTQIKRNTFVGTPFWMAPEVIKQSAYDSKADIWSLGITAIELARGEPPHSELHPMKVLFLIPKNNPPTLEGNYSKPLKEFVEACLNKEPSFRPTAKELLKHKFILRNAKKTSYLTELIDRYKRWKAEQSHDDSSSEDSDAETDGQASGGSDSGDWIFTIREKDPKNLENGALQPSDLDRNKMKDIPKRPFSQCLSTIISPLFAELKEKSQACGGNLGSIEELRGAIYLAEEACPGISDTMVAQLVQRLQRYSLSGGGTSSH

Measured: kinase-Nluc reporter destabilization hit call

Cc1cccc(-c2[nH]ncc2-c2ccc3ncccc3n2)n1 (10 µM)
inactive: RET 0 | [1] 0 | RIOK1 = 0 | RIPK1 = 0 | RIPK2 = 0 | ROR2 = 0 | RPS6KA1 = 0 | SPHK1 = 0 | SRC 0 | STK24 = 0

Cc1ccc(-c2nn(C(C)(C)CNC(=O)c3ccncc3)c3ncnc(N)c23)cc1 (2.5 µM)
inactive: RET 0 | [1] 0 | RIOK1 = 0 | RIPK1 = 0 | RIPK2 = 0 | ROR2 = 0 | RPS6KA1 = 0 | SPHK1 = 0 | SRC 0 | STK24 = 0

O=C(c1ccc(Nc2nccc(-c3cc4ccccc4s3)n2)cc1)N1CCC(N2CCCC2)CC1 (2.5 µM)
inactive: RET 0 | [1] 0 | RIOK1 = 0 | RIPK1 = 0 | RIPK2 = 0 | ROR2 = 0 | RPS6KA1 = 0 | SPHK1 = 0 | SRC 0 | STK24 = 0

Arranged by length of the SMILES (descending): 3 of the compounds above
O=C(c1ccc(Nc2nccc(-c3cc4ccccc4s3)n2)cc1)N1CCC(N2CCCC2)CC1 (2.5 µM)
inactive: RET 0 | [1] 0 | RIOK1 = 0 | RIPK1 = 0 | RIPK2 = 0 | ROR2 = 0 | RPS6KA1 = 0 | SPHK1 = 0 | SRC 0 | STK24 = 0

Cc1ccc(-c2nn(C(C)(C)CNC(=O)c3ccncc3)c3ncnc(N)c23)cc1 (2.5 µM)
inactive: RET 0 | [1] 0 | RIOK1 = 0 | RIPK1 = 0 | RIPK2 = 0 | ROR2 = 0 | RPS6KA1 = 0 | SPHK1 = 0 | SRC 0 | STK24 = 0

Cc1cccc(-c2[nH]ncc2-c2ccc3ncccc3n2)n1 (10 µM)
inactive: RET 0 | [1] 0 | RIOK1 = 0 | RIPK1 = 0 | RIPK2 = 0 | ROR2 = 0 | RPS6KA1 = 0 | SPHK1 = 0 | SRC 0 | STK24 = 0

(cont.)

O=c1ccoc2cc(O)ccc12 [7-Hydroxy-4H-chromen-4-one] (10 µM)
inactive: RET 0 | [1] 0 | RIOK1 = 0 | RIPK1 = 0 | RIPK2 = 0 | ROR2 = 0 | RPS6KA1 = 0 | SPHK1 = 0 | SRC 0 | STK24 = 0

C[C@H]1[C@H](OC(=O)CCC(=O)O)O[C@@H]2O[C@@]3(C)CC[C@H]4[C@H](C)CC[C@@H]1[C@@]24OO3 [Artesunate] (2.5 µM)
inactive: RET 0 | [1] 0 | RIOK1 = 0 | RIPK1 = 0 | RIPK2 = 0 | ROR2 = 0 | RPS6KA1 = 0 | SPHK1 = 0 | SRC 0 | STK24 = 0

CN(C)C(=O)c1ccc(S(=O)(=O)c2ccc(NC(=O)[C@@](C)(O)C(F)(F)F)c(Cl)c2)cc1 (10 µM)
inactive: RET 0 | [1] 0 | RIOK1 = 0 | RIPK1 = 0 | RIPK2 = 0 | ROR2 = 0 | RPS6KA1 = 0 | SPHK1 = 0 | SRC 0 | STK24 = 0

COc1ccc2c(=O)c(-c3ccccc3)coc2c1 [7-Methoxyisoflavone] (10 µM)
inactive: RET 0 | [1] 0 | RIOK1 = 0 | RIPK1 = 0 | RIPK2 = 0 | ROR2 = 0 | RPS6KA1 = 0 | SPHK1 = 0 | SRC 0 | STK24 = 0

CC1=C(CC(=O)O)c2cc(F)ccc2/C1=C\c1ccc(C(C)C)cc1 (10 µM)
inactive: RET 0 | [1] 0 | RIOK1 = 0 | RIPK1 = 0 | RIPK2 = 0 | ROR2 = 0 | RPS6KA1 = 0 | SPHK1 = 0 | SRC 0 | STK24 = 0

Reference: the supplement of paper PMC12823440, “Inhibitors supercharge kinase turnover through native proteolytic circuits” (Nature, 2025)
